Laboratory results reported in paper PMC9576622.
Results are given in words; binding and its absence hold for the method and conditions named. Binding seen in cells or lysates may run through a third protein. Some binding calls cover weakened binding; strength is not graded here.

Protein sequences, listed by entry. Tags and fused reporters are not part of them.
UniProt P30051: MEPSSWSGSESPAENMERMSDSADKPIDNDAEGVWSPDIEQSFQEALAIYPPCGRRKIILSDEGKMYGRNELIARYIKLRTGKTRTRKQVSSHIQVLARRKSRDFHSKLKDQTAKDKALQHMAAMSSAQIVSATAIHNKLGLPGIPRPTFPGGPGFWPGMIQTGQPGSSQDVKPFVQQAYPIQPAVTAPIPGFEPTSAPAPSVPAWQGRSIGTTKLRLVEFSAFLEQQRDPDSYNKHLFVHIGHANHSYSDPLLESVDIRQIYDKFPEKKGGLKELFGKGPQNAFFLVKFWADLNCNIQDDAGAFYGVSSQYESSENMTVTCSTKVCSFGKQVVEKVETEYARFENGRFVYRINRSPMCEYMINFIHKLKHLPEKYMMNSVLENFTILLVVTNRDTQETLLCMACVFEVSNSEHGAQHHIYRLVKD
UniProt P46938: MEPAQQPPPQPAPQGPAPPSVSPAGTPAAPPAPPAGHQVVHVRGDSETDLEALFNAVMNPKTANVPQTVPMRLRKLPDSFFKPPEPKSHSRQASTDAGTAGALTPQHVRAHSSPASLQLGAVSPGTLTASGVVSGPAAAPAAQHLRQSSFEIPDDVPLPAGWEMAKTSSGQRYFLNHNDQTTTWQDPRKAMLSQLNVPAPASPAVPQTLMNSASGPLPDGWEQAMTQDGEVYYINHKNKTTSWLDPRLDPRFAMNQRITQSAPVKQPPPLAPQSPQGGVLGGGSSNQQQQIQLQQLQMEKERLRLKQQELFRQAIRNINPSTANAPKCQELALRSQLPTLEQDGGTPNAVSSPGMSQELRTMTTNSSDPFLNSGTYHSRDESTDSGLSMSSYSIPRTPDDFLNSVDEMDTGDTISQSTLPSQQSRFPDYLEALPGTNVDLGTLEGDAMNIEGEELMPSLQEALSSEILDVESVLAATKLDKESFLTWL

Columns and labels:
[1] = target: Tead1-Flag (UniProt P30051); experiment: co-IP; 293T cells co-transfected with Tead1-Flag and Yap1-HA, 48 h; Anti-Flag or Anti-HA magnetic beads overnight, three washes; with or without verteporfin
[2] = target: TEAD1, endogenous (mouse (endogenous in primary cultured cardiomyocytes)) (UniProt P30051); experiment: co-IP; endogenous proteins; cells transfected with siNC or siVgll4, cultured 48 h; lysate incubated with Tead1 antibody and Dynabeads protein G overnight, three washes, eluted with 1X SDS loading buffer

Substance	binding [1]	binding [2]
Yap1-HA (from UniProt P46938 1-488)	binds	–
Yes-associated protein 1 (YAP1), endogenous (from UniProt P46938 1-488)	–	binds
